No constants are given. Whether binding was seen depends on the method and setting. Some binding calls cover weakened binding; strength is not graded here.

By UniProt entry, the sequences of proteins in these tests, tags left out. Residues count along the entry.
UniProt O76036, residues 22-254: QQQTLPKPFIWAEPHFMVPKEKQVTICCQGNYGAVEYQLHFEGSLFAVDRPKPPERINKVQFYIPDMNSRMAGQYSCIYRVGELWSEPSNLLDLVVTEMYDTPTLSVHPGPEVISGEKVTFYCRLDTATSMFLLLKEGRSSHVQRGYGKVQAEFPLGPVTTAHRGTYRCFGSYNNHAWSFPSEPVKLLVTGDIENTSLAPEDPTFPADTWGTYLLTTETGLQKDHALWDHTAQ

These results are taken from patent US20240199756A1.

Assay [1] concerns the target NKp46 as used in the BIAcore assay of Example 1 (human) (UniProt O76036). The experiment in a line: BIAcore, mAb9 as the injected analyte. A general note: SPR reads the build-up and loss of mass on a sensor chip optically.
The target is the same in assay [2]. The experiment in a line: BIAcore, mAb12 as the injected analyte.

B1: mouse anti-NKp46 monoclonal antibody 09 (antibody, V domains shown)
VH: EVQLQQSGPELVKPGTSVKISCKTSGYTFTEYSMHWVKQSHGKSLEWFGGISPNSGGTSYNQKFKGKATLTVDKSSSTAYMELRSLTSEDSAVYYCARRDFHSSFDYWGQGTTLTVSS
VL: DIVMTQSPATLSVTPGDRVSLSCRASQSISDYLHWFQQKSHESPRLLIKYASQSISGIPSRFSGSGSGSDFTLSINSVEPEDVGVYYCQNGHSFPLTFGPGTKLELK
Regarding B1, the binding entry in assay [1] was “binds”.

B2: mouse anti-NKp46 monoclonal antibody 12 (antibody, V domains shown)
VH: EVQLQQSGPELVKPGTSVKISCKTSGYTFTEYSMHWVKQSHGKSLEWFGGISPNSGGTSYNQKFKGKATLTVDKSSSTAYMELRSLTSEDSAVYYCARRDFHSSFDYWGQGTTLTVSS
VL: DIVLTQSPATLSVTPGNSVSLSCRASQSISDYLHWFQQKSHESPRLLIKYASQSISGIPSRFSGSGSGSDFTLSINSVEPEDVGVYYCQNGHSFPLTFGPGTKLELK
B2: the binding entry in assay [2] is “binds”.
